Test results as given in the supplement of paper PMC11150407.
Among all 3,000 compounds or so, about 45 (2%) showed an effect of 50% or more. The list shows a part of the results.

These compounds were tested on MOLM1 and UCSD/AML1 (averaged) (assay: cell viability relative to DMSO control (POC); higher = less growth inhibition). Conditions: 1 µM; 72 h.
Procedure: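 Primary viability screen in the 3q26 EVI1-high AML cell lines MOLM1 and UCSD/AML1, compounds at 1 uM for 72 h. ATP CellTiter-Glo read-out given as percent viable over DMSO control (POC), averaged over duplicates. This mapping covers the TimTec NDL-3000 natural derivative library, whose compounds are identified by TimTec catalogue codes (ST...).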

SMILES	cell viability
COc1cc(C(=O)NCC23CC4CC(C2)CC(c2ccc(C)c(C)c2)(C4)C3)cc(OC)c1OC	94.6%
CCCNC(=O)c1cc(=O)n(CC(=O)Nc2ccc(C)c(C)c2)c2ccccc12	83.9%
COc1ccc(/C=C2\CCc3ccccc3C2=O)cc1COc1c(Cl)cc(Cl)cc1Cl	114%
CCOc1cccc(C2NC(C)(C(=O)O)C3C(=O)N(c4ccccc4OC)C(=O)C23)c1O (centres undefined)	107%
CC1=C(C(=O)OCc2ccccc2)C(c2coc3ccc(Cl)cc3c2=O)C2=C(CCCC2=O)N1 (centres undefined)	101%
CC(=O)OC1CCC2(C)C(CCC3(C)C2C(=O)C=C2C4CC(C)(C(=O)OC5CCCCC5C)CCC4(C)CCC23C)C1(C)C (centres undefined)	96.3%
CCc1ccc2oc(=O)cc(CN3CCC4(CC3)OCCO4)c2c1	109%
COc1ccc(-c2cc(=O)c3ccccc3o2)c(OC)c1	113%
CC(C)=C(NC(=O)c1ccccc1)C(=O)NCCc1c(C)[nH]c2ccccc12	100%
CCn1c(SCC(=O)Nc2cccc(Cl)c2C)nc2c(=O)[nH]cnc21	97.9%
OCC1OC(OC2OC(CO)C(O)C(O)C2O)C(O)C(O)C1O (centres undefined)	102%
O=C(O)CCC(=O)NCCc1c[nH]c2ccccc12	97.5%
CC(C)COC(=O)NCCc1c[nH]c2ccccc12	88.9%
COC(=O)c1ccc2c(c1)C(=O)/C(=C/c1ccc(OC)cc1OC)O2	96.6%
CCOc1ccc2oc(=O)cc(CN3CCN(CC#N)CC3)c2c1	98.2%
CCOc1cc(C2C3CCCCC3(O)CCN2CC(=O)Nc2cccc3ccccc23)ccc1O (centres undefined)	96.9%
CCOc1ccc2oc(=O)cc(CN3CCN(CC(=O)N(C)c4ccc(F)cc4)CC3)c2c1	96.2%
CC(=O)NC(Cc1c[nH]c2ccccc12)C(=O)NCCOc1cc(C)ccc1C(C)C (centres undefined)	74.2%
COc1ccc(-c2nc(C)c(C(C)=O)n2O)cc1OC	98.5%
COc1cc(Cc2nccc3cc(OC)c(OC)cc23)c(NC(=O)c2ccc(F)cc2)cc1OC	109%
C=CCN(C(=O)CSc1nc2c(=O)[nH]cnc2n1-c1ccccc1)c1ccccc1	98%
CCOc1ccc(C(F)(F)F)cc1N=Cc1c(O)c(O)c(C(C)C)c2cc(C)c(-c3c(C)cc4c(C(C)C)c(O)c(O)c(C=Nc5cc(C(F)(F)F)ccc5OCC)c4c3O)c(O)c12	105%
Cc1cc2[nH]c(=O)cc(C)c2c(C)c1S(=O)(=O)N1CCCCC1	112%
O=C(CCNc1cccc(Br)c1)c1cc2ccccc2oc1=O	103%
CCOC(=O)C1=C(C)N(C)C(=O)NC1c1cc(Br)c(O)c(OC)c1 (centres undefined)	116%

As a short view, part of the list above.
SMILES	cell viability
CC(C)=C(NC(=O)c1ccccc1)C(=O)NCCc1c(C)[nH]c2ccccc12	100%
CCn1c(SCC(=O)Nc2cccc(Cl)c2C)nc2c(=O)[nH]cnc21	97.9%
OCC1OC(OC2OC(CO)C(O)C(O)C2O)C(O)C(O)C1O (centres undefined)	102%
O=C(O)CCC(=O)NCCc1c[nH]c2ccccc12	97.5%
CC(C)COC(=O)NCCc1c[nH]c2ccccc12	88.9%

Later entries:

SMILES	cell viability
N#C/C(=C\c1c[nH]c2ccccc12)C(=O)N1CCc2ccccc2C1	97.1%
O=[N+]([O-])c1ccc(-c2csc(N3CCc4ccccc4C3)n2)cc1	86.3%
COc1ccc(C2c3[nH]c4ccccc4c3CCN2Cc2cccc(F)c2)cc1 (centres undefined)	94.4%
COc1ccc(-c2c(-c3ccccc3)c3ccc(O)cc3oc2=O)cc1OC	104%
O=C(O)CSc1nc2nc[nH]c(=O)c2[nH]1	89.4%
Cc1ccc2c(c1)C1C=CCC1C(C(=O)O)N2 (centres undefined)	94%
COc1cc(C(=O)Nc2c(C)c(C)c3c(c2C)NC(=O)CO3)cc(OC)c1OC	117%
COc1ccc(/C=C/C(=O)c2ccccc2)cc1COc1ccc([N+](=O)[O-])cc1	101%
O=C(Cn1c(=O)cc(C(=O)NCc2ccccc2)c2ccccc21)Nc1cccc(Cl)c1	103%
CC(Nc1n[nH]c(=S)[nH]c1=O)C(=O)OCc1ccccc1 (centres undefined)	97.2%
OC[C@H]1O[C@H](O[C@H]2[C@H](O)[C@@H](O)[C@@H](O)O[C@@H]2CO)[C@H](O)[C@@H](O)[C@@H]1O	89.7%
COc1ccc(C2c3[nH]c4ccccc4c3CCN2C(=O)c2cccs2)cc1 (centres undefined)	105%
CC1CCN(C(=O)CSc2nc3ccccc3c(=O)[nH]2)CC1	93.8%
Cc1ccc2[nH]c(C)c(CCNC(=O)Nc3ccc(Cl)cc3)c2c1	92.2%
O=C(NCCCO)C(=O)NCCCO	102%
COc1ccc2c(c1)c(CC(=O)NCCc1ccccc1)c(C)n2C(=O)c1ccc(Cl)cc1	99.1%
CNC(=O)c1ccccc1NC(=O)C(=O)c1c[nH]c2ccccc12	111%
CCOC(=O)C1=C(C)NC2=C(C(=O)CC(c3ccc(Cl)cc3)C2)C1c1ccc(O)c(OC)c1 (centres undefined)	101%
COc1ccc(-c2nc(CSc3nc4c(=O)[nH]c(C)nc4n3C)c(C)o2)cc1	104%
CCN1C(=O)NC(c2cc(Br)c(O)c(OC)c2)C(C(=O)OC(C)C)=C1C (centres undefined)	109%
COc1ccc(C(=O)Nc2ccc(Cn3ccnc3)cc2)cc1OC	103%
COc1cc(C(=O)N2CCCc3cccc(OC)c32)cc(OC)c1OC	82.3%
Cc1cccc(CSc2nc3c(=O)[nH]cnc3n2C)c1	89.3%
COc1ccc(C(=O)CCNc2ccc3ncn(C)c3c2)cc1OC	99.9%
O=C(O)/C=C/C(=O)c1ccc(Cl)cc1	92.2%

SMILES	cell viability
COCCOC(=O)c1c(C)n(CCOc2ccc(Cl)cc2C)c2c1cc(O)c1ccccc12	95.4%
NC(N)=NCCC[C@H](NC(=O)OCC1c2ccccc2-c2ccccc21)C(=O)O	114%
N#CC1=C(N)Oc2c(oc(CO)cc2=O)C1c1ccc(Br)cc1 (centres undefined)	96.5%
CCCNC(=O)c1cc(=O)n(CC(=O)Nc2ccccc2F)c2ccccc12	87.9%
Cc1ccc(C(=O)CC(NCc2ccccc2)C(=O)O)cc1 (centres undefined)	105%
CCOc1ccccc1C1C2CCCCC2(O)CCN1C(=O)/C=C/c1ccc(OC)cc1 (centres undefined)	101%
CC(=O)OC1CCC2(C)C(CCC3(C)C2C(=O)C=C2C4CC(C)(C(=O)Nc5ccccc5[N+](=O)[O-])CCC4(C)CCC23C)C1(C)C (centres undefined)	108%
Nc1ncnc2c1ncn2[C@@H]1O[C@H](COP(=O)(O)O)[C@H](O)C1O (some centres undefined)	94.8%
O=C(CSc1ncnc2nc[nH]c12)NCCOc1ccc(Cl)cc1	95.2%
O=C(Nc1ccc(Cl)cc1)c1ccc2c(c1O)C(=O)c1ccccc1C2=O	99.3%
O=C(CSc1nc2ccccc2c(=O)[nH]1)NCc1ccccc1Cl	107%
CC(=O)OC1C(CO)OC(n2cnc3c(N)ncnc32)C1OC(C)=O (centres undefined)	99.7%
Cc1ccc(OCCNC(=O)C(=O)NCCC(C)C)cc1	104%
COc1cc(C(=O)NC(=S)Nc2cccc(Cl)c2C)cc(OC)c1OC	87.6%
Cn1c(SCC(=O)Nc2ccc(Br)cc2)nc2c(=O)[nH]cnc21	108%
N#CC1=C(N)Oc2[nH]c(=O)[nH]c(=O)c2C1c1ccccc1 (centres undefined)	108%
CCC(=O)NC(c1ccc(OC)c(OC)c1)c1nccc2cc(OC)c(OC)cc12 (centres undefined)	92.8%
O=C(Cn1c(=O)cc(C(=O)N2CCOCC2)c2ccccc21)Nc1ccc(F)cc1	89.1%
CN(CC(=O)N1CCc2ccccc2C1)S(=O)(=O)c1cc(Cl)ccc1Cl	91.5%
O=c1[nH]c2c(-c3ccccc3)cccc2c(O)c1C(c1cccc(Br)c1)c1c(O)c2ccccc2n(-c2ccccc2)c1=O (centres undefined)	122%
Cc1[nH]c2ccc(OC(F)(F)F)cc2c1CCNC(=O)c1cccc(F)c1F	93.6%
COc1ccc(C2c3[nH]c4ccccc4c3CCN2CC(=O)NC2CCCCC2)cc1 (centres undefined)	83.7%
CCc1ccccc1NC(=O)CSc1nc2c(=O)[nH]cnc2n1CC	97.7%
COc1cc(C2NC(=O)NC(C)=C2C(=O)OC2CCC(C)CC2)ccc1O (centres undefined)	104%
CCCc1cc(=O)[nH]c(SCC(=O)Nc2c(Cl)cccc2Cl)n1	88.8%

SMILES	cell viability
Cc1cccc(NC(=O)CSc2nc3c(=O)[nH]cnc3n2C)c1C	95.1%
Cc1nc(NC(CC(C)C)C(=O)O)c2nc(C)oc2n1 (centres undefined)	106%
CCCNC(=O)c1cc(=O)n(CC(=O)Nc2ccccc2)c2ccccc12	99.4%
COc1cc(C2C(C(=O)OCCOc3ccccc3)=C(C)NC3=C2C(=O)CC(C)(C)C3)cc(OC)c1O (centres undefined)	89%
COc1ccccc1-c1c(C(F)(F)F)oc2cc(OC(=O)c3ccccc3F)ccc2c1=O	102%
COc1ccc(C)cc1NC(=O)C(=O)NCc1ccccc1	101%
COc1cc(C(=O)Nc2ccccc2NC(=O)c2cc(OC)c(OC)c(OC)c2)cc(OC)c1OC	95.9%
COc1ccc(N2CCN(C(=O)c3c[nH]c4ccccc34)CC2)cc1	107%
CCOC(=O)CNC(=O)c1c(Cl)cccc1Cl	108%
C=CCN(C(=O)CSc1nc2c(=O)[nH]cnc2n1CC)c1ccccc1	109%
CCCCOC(=O)c1ccc(NC(=O)c2ccc(OC)c(OC)c2)cc1	93.6%
O=C1C2OCC(O2)[C@H]2[C@@H]1[C@H]1C=Cc3ccccc3N1[C@@H]2C(=O)c1ccccc1 (some centres undefined)	89.2%
CCOc1ccc(-n2c(C)c(C(=O)OCCOC)c3cc(O)c4ccccc4c32)cc1	67.9%
COC(=O)C1=C(C)NC2=C(C(=O)CC(c3ccc(Cl)cc3)C2)C1c1ccc(O)c(OC)c1 (centres undefined)	99.8%
COc1ccc(/C=C/C(=O)Nc2ccc(C(C)=O)cc2)cc1OC	85.5%
Cc1c(C(=O)N2CCOCC2)[nH]c2ccc(OCc3ccccc3)cc12	102%
Cc1cc(C)c2c(CN3CCN(c4cccc(C)c4C)CC3)cc(=O)oc2c1	104%
CCOc1cccc2cc(C(=O)NCc3ccccn3)c(=O)oc12	99.7%
O=C(Cn1c(=O)cc(C(=O)N2CCc3ccccc3C2)c2ccccc21)Nc1ccc(Cl)cc1	105%
Cc1cccc(OCCn2c3nc(=O)[nH]c(=O)c-3nc3cc(C(F)(F)F)ccc32)c1	102%
COC(=O)C1=C(C)NC2=C(C(=O)CCC2)C1c1cc(OC)c(OC)c(OC)c1 (centres undefined)	94.9%
COc1cc2c(cc1OC)/C(=C/c1ccc3c(c1)OCO3)C(=O)OC2	88.9%
COc1ccc(/C=C(\NC(=O)c2ccc(Br)cc2)C(=O)NCCc2c(C)[nH]c3ccccc23)cc1	94.5%
Cc1[nH]c2c(Cl)cccc2c1CCNC(=O)c1cc(S(=O)(=O)N(C)C)c(Cl)cc1Cl	89.3%
